# In all, about 1,900 compounds were measured (“excess over highest single agent (ExcessHSA) synergy score, 6x6 matrix”: median about -83, lowest 2% from about -370 on). This is one part of the list.
# Tested on: NCI-H446
# Experiment: excess over highest single agent (ExcessHSA) synergy score, 6x6 matrix; higher = less synergy (more negative = stronger synergy)
# Conditions: 72 h; CellTiter-Glo viability
row,Structure (SMILES),excess over highest single agent
1,C/C=C(\C)C(=O)N[C@@H](c1ccccc1)[C@@H](O)C(=O)O[C@H]1C[C@@]2(O)[C@@H](OC(=O)c3ccccc3)[C@@H]3[C@]4(OC(C)=O)CO[C@@H]4C[C@H](O)[C@@]3(C)C(=O)[C@H](OC(C)=O)C(=C1C)C2(C)C + Cc1sc2c(c1C)C(c1ccc(Cl)cc1)=N[C@@H](CC(=O)OC(C)(C)C)c1nnc(C)n1-2 [NCGC00250412-19],-68
2,CC[C@@]1(O)C(=O)OCc2c1cc1n(c2=O)Cc2cc3cc(O)ccc3nc2-1 + Cc1sc2c(c1C)C(c1ccc(Cl)cc1)=N[C@@H](CC(=O)OC(C)(C)C)c1nnc(C)n1-2 [NCGC00250412-19],-416
3,Cc1cccc(-c2[nH]c(C(C)(C)C)nc2-c2ccc3nccnc3c2)n1 + Cc1sc2c(c1C)C(c1ccc(Cl)cc1)=N[C@@H](CC(=O)OC(C)(C)C)c1nnc(C)n1-2 [NCGC00250412-19],87.5
4,Nc1cccc(S(=O)(=O)N2CCCN(S(=O)(=O)c3ccc4c(c3)OCCO4)CC2)c1 + Cc1sc2c(c1C)C(c1ccc(Cl)cc1)=N[C@@H](CC(=O)OC(C)(C)C)c1nnc(C)n1-2 [NCGC00250412-19],-24.9
5,CC[C@H](C)n1cc(C)c2c(C(=O)NCc3c(C)cc(C)[nH]c3=O)cc(-c3ccc(N4CCNCC4)nc3)cc21 + Cc1sc2c(c1C)C(c1ccc(Cl)cc1)=N[C@@H](CC(=O)OC(C)(C)C)c1nnc(C)n1-2 [NCGC00250412-19],-78.6
6,CC1(CN2CCC(n3c(=O)[nH]c4ccccc43)CC2)OCc2ccccc2-n2cccc21 (configuration not stated) + Cc1sc2c(c1C)C(c1ccc(Cl)cc1)=N[C@@H](CC(=O)OC(C)(C)C)c1nnc(C)n1-2 [NCGC00250412-19],-142
7,NC(=O)c1noc([C@H](CCCC2CCCCC2)CC(=O)NO)n1 + Cc1sc2c(c1C)C(c1ccc(Cl)cc1)=N[C@@H](CC(=O)OC(C)(C)C)c1nnc(C)n1-2 [NCGC00250412-19],-77.7
8,Cc1cnc(Nc2ccc(N3CCN(C)CC3)cc2)nc1Nc1cccc(S(=O)(=O)NC(C)(C)C)c1 + Cc1sc2c(c1C)C(c1ccc(Cl)cc1)=N[C@@H](CC(=O)OC(C)(C)C)c1nnc(C)n1-2 [NCGC00250412-19],-168
9,O=C1NC(=O)/C(=C/c2ccc(-c3ccc(F)cc3O)o2)S1 + Cc1sc2c(c1C)C(c1ccc(Cl)cc1)=N[C@@H](CC(=O)OC(C)(C)C)c1nnc(C)n1-2 [NCGC00250412-19],92.3
10,COc1cccc2nc(-c3cccs3)nc(NN3C(=O)C=C(C)C3=O)c12 + Cc1sc2c(c1C)C(c1ccc(Cl)cc1)=N[C@@H](CC(=O)OC(C)(C)C)c1nnc(C)n1-2 [NCGC00250412-19],-408
11,Cc1ccc(/C=N/NC(=O)c2ccccc2Oc2ccccc2)o1 + Cc1sc2c(c1C)C(c1ccc(Cl)cc1)=N[C@@H](CC(=O)OC(C)(C)C)c1nnc(C)n1-2 [NCGC00250412-19],17.3
12,CNC(=O)c1nn(C)c2c1C(C)(C)Cc1cnc(Nc3ccc(N4CCN(C)CC4)cc3)nc1-2 + Cc1sc2c(c1C)C(c1ccc(Cl)cc1)=N[C@@H](CC(=O)OC(C)(C)C)c1nnc(C)n1-2 [NCGC00250412-19],-348
13,CC(C)(O)CC[C@@H](O)[C@](C)(O)[C@H]1CC[C@@]2(O)C3=CC(=O)[C@@H]4C[C@@H](O)[C@@H](O)C[C@]4(C)[C@H]3CC[C@]12C + Cc1sc2c(c1C)C(c1ccc(Cl)cc1)=N[C@@H](CC(=O)OC(C)(C)C)c1nnc(C)n1-2 [NCGC00250412-19],-36.1
14,Cc1ccc(C(C)(O)c2nc3ccccc3s2)c(C)c1 (configuration not stated) + Cc1sc2c(c1C)C(c1ccc(Cl)cc1)=N[C@@H](CC(=O)OC(C)(C)C)c1nnc(C)n1-2 [NCGC00250412-19],-48.3
15,COc1cc2nc(N3CCN(C(=O)C4CCCO4)CC3)nc(N)c2cc1OC (configuration not stated) + Cc1sc2c(c1C)C(c1ccc(Cl)cc1)=N[C@@H](CC(=O)OC(C)(C)C)c1nnc(C)n1-2 [NCGC00250412-19],23.3
16,CN1CCN(c2cccc(Nc3nc4c(-c5ccc(S(C)(=O)=O)cc5)cccn4n3)c2)CC1 + Cc1sc2c(c1C)C(c1ccc(Cl)cc1)=N[C@@H](CC(=O)OC(C)(C)C)c1nnc(C)n1-2 [NCGC00250412-19],53.5
17,Cc1ccc(C2=Nc3ccc(Cl)cc3OC2)cc1 + Cc1sc2c(c1C)C(c1ccc(Cl)cc1)=N[C@@H](CC(=O)OC(C)(C)C)c1nnc(C)n1-2 [NCGC00250412-19],-211
18,CC(=O)OCC(=O)[C@@]1(O)CC[C@H]2[C@@H]3CCC4=CC(=O)CC[C@]4(C)[C@H]3C(=O)C[C@@]21C + Cc1sc2c(c1C)C(c1ccc(Cl)cc1)=N[C@@H](CC(=O)OC(C)(C)C)c1nnc(C)n1-2 [NCGC00250412-19],-62.4
19,CC/C=C\CC1C(=O)CCC1CC(=O)OC (configuration not stated) + Cc1sc2c(c1C)C(c1ccc(Cl)cc1)=N[C@@H](CC(=O)OC(C)(C)C)c1nnc(C)n1-2 [NCGC00250412-19],223

row,Structure (SMILES),excess over highest single agent
1,CCCCC(=O)O[C@]1(C(=O)CO)[C@@H](C)C[C@H]2[C@@H]3CCC4=CC(=O)C=C[C@]4(C)[C@@]3(F)[C@@H](O)C[C@@]21C + Cc1sc2c(c1C)C(c1ccc(Cl)cc1)=N[C@@H](CC(=O)OC(C)(C)C)c1nnc(C)n1-2 [NCGC00250412-19],-26.5
2,Nc1ccn(C[C@@H](CO)OCP(=O)(O)O)c(=O)n1 + Cc1sc2c(c1C)C(c1ccc(Cl)cc1)=N[C@@H](CC(=O)OC(C)(C)C)c1nnc(C)n1-2 [NCGC00250412-19],-231
3,FC(F)(F)c1ccc(/C=C/c2nc(COc3ccc(CCCCn4ccnn4)cc3)co2)cc1 + Cc1sc2c(c1C)C(c1ccc(Cl)cc1)=N[C@@H](CC(=O)OC(C)(C)C)c1nnc(C)n1-2 [NCGC00250412-19],-204
4,CCOP(=O)(OCC)C(C)NC(=O)N(CCCl)N=O (configuration not stated) + Cc1sc2c(c1C)C(c1ccc(Cl)cc1)=N[C@@H](CC(=O)OC(C)(C)C)c1nnc(C)n1-2 [NCGC00250412-19],-71
5,CC(=O)OCC1=C(C(=O)O)N2C(=O)[C@@H](N)[C@H]2SC1 + Cc1sc2c(c1C)C(c1ccc(Cl)cc1)=N[C@@H](CC(=O)OC(C)(C)C)c1nnc(C)n1-2 [NCGC00250412-19],-96.7
6,COc1ccc(Nc2nccc(NCCO)n2)cc1 + Cc1sc2c(c1C)C(c1ccc(Cl)cc1)=N[C@@H](CC(=O)OC(C)(C)C)c1nnc(C)n1-2 [NCGC00250412-19],81.9
7,O=C1c2c(O)cc(O)cc2OC(c2ccc(O)c(O)c2)C1O (configuration not stated) + Cc1sc2c(c1C)C(c1ccc(Cl)cc1)=N[C@@H](CC(=O)OC(C)(C)C)c1nnc(C)n1-2 [NCGC00250412-19],-160
8,COC1CCC(N(C(=O)C2CCC(C)CC2)c2cc(C3=CCCCC3)sc2C(=O)O)CC1 (configuration not stated) + Cc1sc2c(c1C)C(c1ccc(Cl)cc1)=N[C@@H](CC(=O)OC(C)(C)C)c1nnc(C)n1-2 [NCGC00250412-19],-93.8
9,C[C@@H]1C(=O)O[C@H]2C[C@@]34[C@H]5C[C@@H](C(C)(C)C)[C@]36[C@@H](OC(=O)[C@@H]6O)O[C@@]4(C(=O)O5)[C@]21O + Cc1sc2c(c1C)C(c1ccc(Cl)cc1)=N[C@@H](CC(=O)OC(C)(C)C)c1nnc(C)n1-2 [NCGC00250412-19],-1.49
10,CC(c1cc2ccccc2s1)N(O)C(N)=O (configuration not stated) + Cc1sc2c(c1C)C(c1ccc(Cl)cc1)=N[C@@H](CC(=O)OC(C)(C)C)c1nnc(C)n1-2 [NCGC00250412-19],-83.8
11,CC1=C(/C=C/C(C)=C/C=C/C(C)=C/C(=O)Nc2ccc(O)cc2)C(C)(C)CCC1 + Cc1sc2c(c1C)C(c1ccc(Cl)cc1)=N[C@@H](CC(=O)OC(C)(C)C)c1nnc(C)n1-2 [NCGC00250412-19],-255
12,NC(=O)c1ncn([C@@H]2O[C@H](CO)[C@@H](O)[C@H]2O)c1N + Cc1sc2c(c1C)C(c1ccc(Cl)cc1)=N[C@@H](CC(=O)OC(C)(C)C)c1nnc(C)n1-2 [NCGC00250412-19],-85.2
13,CN(C)CCC=C1c2ccccc2C=Cc2ccccc21 + Cc1sc2c(c1C)C(c1ccc(Cl)cc1)=N[C@@H](CC(=O)OC(C)(C)C)c1nnc(C)n1-2 [NCGC00250412-19],-24.8
14,O=C1c2cccc(O)c2C(=O)c2c(O)cc(CO)cc21 + Cc1sc2c(c1C)C(c1ccc(Cl)cc1)=N[C@@H](CC(=O)OC(C)(C)C)c1nnc(C)n1-2 [NCGC00250412-19],-83.6
15,CN(C)CCc1c[nH]c2ccc(C[C@H]3COC(=O)N3)cc12 + Cc1sc2c(c1C)C(c1ccc(Cl)cc1)=N[C@@H](CC(=O)OC(C)(C)C)c1nnc(C)n1-2 [NCGC00250412-19],-149
16,CON=C(C(=O)N[C@@H]1C(=O)N2C(C(=O)O)=C(Cn3ccc(=N)n3CCO)CS[C@H]12)c1csc(N)n1 + Cc1sc2c(c1C)C(c1ccc(Cl)cc1)=N[C@@H](CC(=O)OC(C)(C)C)c1nnc(C)n1-2 [NCGC00250412-19],337
17,CC(=O)OCC(=O)[C@@]1(O)[C@H](C)C[C@H]2[C@@H]3C=C(C)C4=Cc5c(cnn5-c5ccccc5)C[C@]4(C)[C@H]3[C@@H](O)C[C@@]21C + Cc1sc2c(c1C)C(c1ccc(Cl)cc1)=N[C@@H](CC(=O)OC(C)(C)C)c1nnc(C)n1-2 [NCGC00250412-19],-98.1
18,O=C(NC1CCOCC1)c1ccc(-c2cc(-c3c[nH]nc3-c3ccccn3)ccn2)cc1 + Cc1sc2c(c1C)C(c1ccc(Cl)cc1)=N[C@@H](CC(=O)OC(C)(C)C)c1nnc(C)n1-2 [NCGC00250412-19],91.7

# Some values from the entries so far.
# excess over highest single agent, C[C@@H]1C(=O)O[C@H]2C[C@@]34[C@H]5C[C@@H](C(C)(C)C)[C@]36[C@@H](OC(=O)[C@@H]6O)O[C@@]4(C(=O)O5)[C@]21O + Cc1sc2c(c1C)C(c1ccc(Cl)cc1)=N[C@@H](CC(=O)OC(C)(C)C)c1nnc(C)n1-2 [NCGC00250412-19] is entered as -1.49
# excess over highest single agent, O=C(NC1CCOCC1)c1ccc(-c2cc(-c3c[nH]nc3-c3ccccn3)ccn2)cc1 + Cc1sc2c(c1C)C(c1ccc(Cl)cc1)=N[C@@H](CC(=O)OC(C)(C)C)c1nnc(C)n1-2 [NCGC00250412-19] is entered as 91.7
# excess over highest single agent, Nc1ccn(C[C@@H](CO)OCP(=O)(O)O)c(=O)n1 + Cc1sc2c(c1C)C(c1ccc(Cl)cc1)=N[C@@H](CC(=O)OC(C)(C)C)c1nnc(C)n1-2 [NCGC00250412-19] is entered as -231
